# Primary screen of a compound library

Results are given as percent effect. The record does not define 0% and 100%; most values in the screen are far below 50% and negative numbers occur (in some assays of this library far below -100). The compounds are a random part of those screened. A dash means the value is not listed here; it may have been measured.

Mtb growth Cornell: 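Whole-cell assay for inhibitors of Mycobacterium tuberculosis growth, labelled Cornell in the record; the read-out is not stated. The concentration is filed as 10 mM, unlikely as a test dose, so the dose is not known. Higher means stronger inhibition (inferred from two other growth screens of the library). Of about 53,000 compounds tested this way, about 900 (1.7%) reached 50% or more in at least one test.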
Mtb heat-shock: 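Assay on Mycobacterium tuberculosis, filed only as a heat shock assay from Cornell; the read-out is not stated. The concentration is filed as 10 mM, unlikely as a test dose, so the dose is not known. Direction is inferred from retests: higher values go with stronger inhibition. About 69,000 compounds were tested under these conditions; 1.4% (about 930) showed 50% or more at least once.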

compound	Mtb growth Cornell	Mtb heat-shock
CC(C)c1nccn1CCCNC(=O)c1ccc(-c2cn[nH]c2)nc1	-	-39%
CN(C)C(=O)n1c(C(=O)NC(C)(C)CO)cc2c1c1ccccc1n2C	7.756%	-8.913%
CN1C(=O)C(c2ccccc2)CC12CCN(CCN1CCCC1=O)CC2 (centres unmarked)	1.035%	-19.62%
Cc1ccc(SC2CCCC2)c(C(=O)NCCO)c1	14.78%	4.623%
Cc1cncc(C(=O)N2CCNCC2C(=O)Nc2ccc(C)nc2)c1 (centres unmarked)	0.8808%	5.308%
COc1cccc(-c2cc(NCc3nccn3C)n(C)n2)c1	0.8256%	1.129%
Cc1nc(CN2CCCC(CCc3cccc(C(F)(F)F)c3)C2)co1 (centres unmarked)	14.6%	6.049%
CN(C)CC1CN(Cc2coc(-c3cccs3)n2)CCO1 (centres unmarked)	-	-9.481%
O=C(O)C(F)(F)F.[H][C@@]12CN(Cc3nccs3)C[C@]1([H])CN(C(N)=O)C2	5.044%	-3.349%
CCC(=O)N1CCC(c2cc(Nc3ncccn3)nc(C)n2)C1 (centres unmarked)	-34.07%	-14.15%
COc1ccc(C2CC(=O)Oc3cc(C)[nH]c(=O)c32)c(OC)c1 (centres unmarked)	28.62%	5.587%
COCC(=O)NCc1cc2n(n1)CCCN(CCCC1CCCC1)C2	6.49%	10.37%
COc1cccc(S(=O)(=O)Cc2cc(C)on2)c1	11.62%	11.3%
Cc1cnn(Cc2cccc(OCC(N)=O)c2)c1	11.3%	0.1395%
Cn1nccc1C1CCN(Cc2ccn(-c3ccccc3)n2)CC1	-	-8.934%
CCn1cc2c(n1)C(COC)CN(Cc1ccccn1)C2 (centres unmarked)	96.31%	-19%
O=C(NCCN1CCCC1)c1cc2c(s1)CCN2C(=O)c1ccccc1	16.96%	-10.64%
[H][C@@]12CN(Cc3cccnc3)C[C@]1([H])C(=O)N(CC)C21CCN(C(C)=O)CC1	-	-12.13%
Cc1cnn(CC(C)NCc2cc(=O)n3ccccc3n2)c1 (centres unmarked)	-7.905%	-6.265%
O=C(NCCc1cccc(F)c1)NCC(O)c1cccc(F)c1 (centres unmarked)	-5.987%	14.46%
CC(C)(C)c1n[nH]c(C2CN(C(=O)CCCn3cccn3)CCO2)n1 (centres unmarked)	12.92%	5.936%
N#Cc1ccccc1OCCN1CCC(N2CCNC2=O)CC1	12.74%	0.1308%
CCc1nc2c(c(N3CCOCC3)n1)CCN(C(=O)N1CCCC1)CC2	-9.871%	-27.62%
Cn1ncc2c(=O)[nH]c(N3CCCC3c3cccs3)nc21 (centres unmarked)	-11.94%	-22.52%
CC(C)N1CCC(NC(=O)NCc2ccccc2)CC1	-20.02%	-4.803%
Cn1ccnc1CN1CCCN(C(=O)COCC2CC2)CC1	2.097%	-6.635%
CS(=O)(=O)N1CCCC12CCCN(C(=O)c1cc(F)cc(F)c1)C2 (centres unmarked)	15.39%	-8.772%
CN(Cc1ccc(F)cc1)[C@@H]1CN(S(C)(=O)=O)C[C@H]1O	-0.603%	-4.063%
NC(=O)[C@@H]1Cc2ccccc2CN1S(=O)(=O)N1CCCCC1	-4.022%	14.4%
CCN(CC)C(=O)CCc1nc(-c2cnn3c(C)cc(C)nc23)no1	9.521%	-6.699%
CCOC(=O)CC1(Nc2nc(C)nc3c2cnn3C)CCCCC1	20.86%	-16.35%
C=C(C)COc1ccccc1NC(=O)N1CCOCC1CO (centres unmarked)	2.596%	-5.639%
O=C(NCC(O)c1ccc(F)cc1)C1CCN(C2CCCCC2)CC1 (centres unmarked)	-	-101.1%
[H][C@]1([C@H](O)c2ccc(NC(=O)C3CC3)cc2)COCC(=O)N1CC(C)C	6.575%	-24.87%
COc1cc(NC(=O)NC2CCCC2)ccc1N1CCOC1=O	0.2451%	2.842%
CCc1nc(CN(C)C(=O)c2cc(CN(CC)CC)c(CC)o2)no1	11.36%	5.402%
N#Cc1cc(C(F)(F)F)ccc1NCC1CCS(=O)(=O)CC1	-	-19.52%
CC(C)n1ccc2cc(C(=O)Nc3nc[nH]n3)ccc21	12.5%	10.99%
CN(CCO)C[C@@H]1CN(C2CCN(c3ccccc3Cl)CC2)C[C@@H]1CO	33.3%	81.68%
CC(C)(C)OC(=O)N1CCN(C(=O)CCn2cccn2)CC1	-	-10.73%
Cc1cc(-c2cnc(NC3CCCC3)nc2-c2ccoc2)on1	81.21%	21.59%
[H][C@]12CN(c3ccc(C)nn3)CC[C@@]1(O)CCN(S(C)(=O)=O)C2	-	-165.2%
O=C(c1cc2c(s1)CCC2)N1CCCCC1Cn1cccn1 (centres unmarked)	21.63%	15.61%
CN1CCN(C)C2(CCN(Cc3ccsc3)CC2)C1=O.O=C(O)C(F)(F)F	-27.7%	-19.83%
Cc1oncc1C(=O)NCc1cc(=O)n2c(n1)CN(CC(C)C)CCC2.O=C(O)C(F)(F)F	-	-11.26%
[H][C@@]12CN(Cc3cccs3)C[C@]1([H])CN(C(=O)c1cnc(C)cn1)C2	25.31%	-5.405%
[H][C@]12CCN(Cc3cccc(C)n3)[C@@]1([H])C[C@H](C(=O)N1CCN(C)CC1)O2	2.506%	12.84%
COc1ccc(CNC(=O)c2nn(C)c3c2CS(=O)(=O)CC3)cc1OC	-	-7.127%
CN(Cc1ccc(F)cc1)C(=O)NCc1nnc2n1CCCCC2	-25.77%	-11.54%
N#Cc1cccc(CN2CC3(CCCCN3c3cncnc3)CC2=O)c1.O=C(O)C(F)(F)F (centres unmarked)	7.595%	-10.45%
O=C(O)C(F)(F)F.O=c1cccnn1CC1CN(Cc2ccsc2)Cc2nccn2C1 (centres unmarked)	21.21%	7.69%
O=C(NCC(Cc1cccc(F)c1)N1CCCC1=O)C1CCCC1 (centres unmarked)	12.92%	-33.05%
CCC(Nc1ccc(Oc2cccc(C#N)c2)cc1)C(N)=O (centres unmarked)	-	1.532%
Cc1ccc(C(=O)Nc2c(C(=O)N(C)C)nn(C)c2C)cc1C	-	0.5449%
Cc1nc2ccccn2c1CN1C[C@@H](CN(C)C)[C@@H](CO)C1	6.045%	-0.2499%
COc1ccc(C(=O)N2CCOCC2c2[nH]ncc2C)cc1F (centres unmarked)	-6.201%	0.4081%
CCN(C(=O)COC)C(c1cccnc1)c1ccc2c(c1)CCO2 (centres unmarked)	20.99%	-18.6%
CCC(C)N(Cc1cccnc1)Cc1cc2c(cc1OC)OCO2 (centres unmarked)	-	-13.95%
CN(CC(=O)Nc1ccncc1)C1CCCN(c2cccnn2)C1 (centres unmarked)	7.99%	-4.107%
CCCn1nccc1C(=O)N1CCCN(CCCc2ccccc2)CC1	36.26%	-25.3%
COc1cc(C2CC(=O)Nc3c2nc2n3CCCC2)ccc1O (centres unmarked)	6.836%	-0.485%
CC(C)C(=O)NC1CCCN(C(=O)c2cc(Cl)ccc2O)C1 (centres unmarked)	-65.19%	-24.16%
COCCOc1ccc(F)cc1NCc1nc2ccccc2n1C	-6.613%	-11.81%
COc1cccc(C(=O)N2CCOC3(CCCN(C(C)=O)C3)C2)c1 (centres unmarked)	15.35%	5.566%
CNc1cc(C2CCCNC2)nc(C)n1.Cl.Cl (centres unmarked)	-38.71%	-17.65%
CC(C)C1=NOC(c2nc(-c3cccc(Cl)c3)no2)C1 (centres unmarked)	12.07%	33.63%

The last 8 entries again:

Result for CN(CC(=O)Nc1ccncc1)C1CCCN(c2cccnn2)C1 (centres unmarked) was Mtb growth Cornell: 7.99%; Mtb heat-shock: -4.107%.
Result for CCCn1nccc1C(=O)N1CCCN(CCCc2ccccc2)CC1 was Mtb growth Cornell: 36.26%; Mtb heat-shock: -25.3%.
Result for COc1cc(C2CC(=O)Nc3c2nc2n3CCCC2)ccc1O (centres unmarked) was Mtb growth Cornell: 6.836%; Mtb heat-shock: -0.485%.
Result for CC(C)C(=O)NC1CCCN(C(=O)c2cc(Cl)ccc2O)C1 (centres unmarked) was Mtb growth Cornell: -65.19%; Mtb heat-shock: -24.16%.
Result for COCCOc1ccc(F)cc1NCc1nc2ccccc2n1C was Mtb growth Cornell: -6.613%; Mtb heat-shock: -11.81%.
Result for COc1cccc(C(=O)N2CCOC3(CCCN(C(C)=O)C3)C2)c1 (centres unmarked) was Mtb growth Cornell: 15.35%; Mtb heat-shock: 5.566%.
Result for CNc1cc(C2CCCNC2)nc(C)n1.Cl.Cl (centres unmarked) was Mtb growth Cornell: -38.71%; Mtb heat-shock: -17.65%.
Result for CC(C)C1=NOC(c2nc(-c3cccc(Cl)c3)no2)C1 (centres unmarked) was Mtb growth Cornell: 12.07%; Mtb heat-shock: 33.63%.

From ChEMBL document CHEMBL3988442, “University of Dundee, Small-Polar-MMV Screening Library” (2021).